The text below walks through data of patent publication US20240093159A1 (UNIVERSITY OF DUNDEE, published 2024).

Amino acid sequences for entries named in this document (tags omitted). A change or cut given only in a name is not applied to a line headed by its entry.
UniProt Q16552: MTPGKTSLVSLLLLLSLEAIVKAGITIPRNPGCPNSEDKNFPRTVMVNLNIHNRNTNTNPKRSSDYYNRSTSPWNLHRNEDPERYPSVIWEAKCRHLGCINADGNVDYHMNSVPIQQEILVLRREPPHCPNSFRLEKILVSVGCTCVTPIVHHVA

No constants are given. Whether binding was seen depends on the method and setting. Some results given as binding are weak or reduced against the parent protein; the word gives no strength.

This assay deals with T1, Human IL17RA protein (SinoBiological) (human, UniProt Q96F46 33-320).
T1 construct: Coated on ELISA plates at 0.25 ug/well; also called IL17RA receptor
T1 sequence (looked up): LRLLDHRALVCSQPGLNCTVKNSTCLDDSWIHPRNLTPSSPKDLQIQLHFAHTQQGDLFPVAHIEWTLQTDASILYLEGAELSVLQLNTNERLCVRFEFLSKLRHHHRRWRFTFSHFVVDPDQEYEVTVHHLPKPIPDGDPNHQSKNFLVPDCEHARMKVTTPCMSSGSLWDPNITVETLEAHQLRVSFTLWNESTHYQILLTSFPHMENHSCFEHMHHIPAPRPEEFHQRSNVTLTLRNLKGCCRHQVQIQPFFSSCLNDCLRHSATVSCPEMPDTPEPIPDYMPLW
Kind of assay: receptor binding ELISA with coated human IL17RA. On the technique in general: An ELISA detects its analyte on a solid surface through an enzyme-linked reagent.

“human IL17 purified on Im7-Sepharose and released from ColE7 by TEV protease (from UniProt Q16552 24-155) (ligand)”: the binding result was “binds”.
